Experiments:
APOL1 = test: RNA-seq of APOL1 expression in compound-treated primary human hepatocytes; format: cell-based; details: RNAseq, 10 uM dose (Table 20)
Protocol: (§1) Human hepatocytes were obtained from two donors from Massachusetts General Hospital, namely MGH54 and MGH63, and one donor from Lonza, namely HUM4111B. Cryopreserved hepatocytes were cultured in plating media for 16 hours, transferred to maintenance media for 4 hours. Cultured on serum-free media for 2 hours, then a compound was added. The hepatocytes were maintained on the serum-free media for 16 hours prior to gene expression analysis. Primary human hepatocytes were stored in the vapor phase of a liquid nitrogen freezer (about −130° C.).
(§2) Human hepatocytes cultured as described above were plated in 24-well format, adding 375,000 cells per well in a volume of 500 ul plating medium. Four hours before treatment, cells were washed with PBS and the medium was changed to either: fresh maintenance medium (complete) or modified maintenance medium.
(§3) Compound stocks were prepared at 1000× final concentration and added in a 2-step dilution to the medium to reduce risk of a compound precipitating out of solution when added to the cells, and to ensure reasonable pipetting volumes. […]
(§4) For mRNA isolation and library prep, the NEBNext Poly(A) mRNA Magnetic Isolation Module and Directional Prep kit was used. RNA isolated from cells above was quantified, and prepared in […] of each sample in 50 μl of nuclease-free water. […]

ANGPTL3 = test: RNA-seq of ANGPTL3 expression in compound-treated primary human hepatocytes; format: cell-based; details: additional compounds (Table 13)
Protocol: as §1, §2, §3, §4

Compound | APOL mRNA linear fold change (APOL1) | ANGPTL3-LINEAR FOLD CHANGE (ANGPTL3)
Cc1cc(/C=C/c2ccc3cc(N(C)C)ccc3[n+]2C)c(C)n1-c1ccccc1.Cc1cc(/C=C/c2ccc3cc(N(C)C)ccc3[n+]2C)c(C)n1-c1ccccc1.O=C([O-])c1cc2ccccc2c(Cc2c(O)c(C(=O)[O-])cc3ccccc23)c1O [CPD377_Pyrvinium pamoate salt, Pyrvinium pamoate salt] | 0.6507 | –
Nc1nc2ccc(OC(F)(F)F)cc2s1 [Riluzole] | – | 0.4763

— patent US20210161997A1, “TREATING DISEASES VIA TARGETED MODULATION OF GENE SIGNALING NETWORKS” (Camp4 Therapeutics Corporation, priority 2018, published 2021)
